Values joined by “and” are separate entries in the source; they are usually repeats but may differ in a detail not shown here. Identical values can stand only once. Some of the results follow. Each value is one well over the wells without odorant, computed here; the data are noisy.

Results on 26 compounds are retold here after the odorant receptor screen of Mainland et al. (2015).

The test system of one experiment is OR2T5 clone 1495. In words: odorant receptor activation (CRE luciferase / Renilla) (fold of no-odor wells); higher = more activation. The conditions noted are these: 100 µM.
Take `COC(=O)c1ccccc1` [methyl benzoate]: the odorant receptor activation is 0.7 and 1.04.
The same measure, in the same setting: under `CCCCCCCOC(C)=O` [heptyl acetate] stands 0.739 and 1.19.
Take `COc1ccccc1O` [guaiacol]: the odorant receptor activation was 0.725 and 1.29.
The same measure, in the same setting: the result for `CC(=O)OCC=C(C)CCC=C(C)C` [geranyl acetate] reads 0.995 and 1.2; that for `CC(=O)OC1CC2CCC1(C)C2(C)C` (stereo unspecified) [isobornyl acetate], 0.752 and 1.08; that for `CCCCCC(C)=O` [2-heptanone], 0.994 and 0.736.
As for `CCCCCOC(C)=O` [n-amyl acetate], the odorant receptor activation was 0.934 and 0.994.
Still for that read-out and setting: the result for `CC12C=CCC1C1CCC3CC(=O)CCC3(C)C1CC2` (stereo unspecified) [androstenone] reads 0.997; that for `CCCCCCOC(=O)CCC` [hexyl butyrate], 0.895 and 0.886.
`CCC1(O)C2(C)CCC(C2)C1(C)C` (stereo unspecified) [2-ethylfenchol] came in with an odorant receptor activation of 1.03.
On the same count and under the same terms, the result for `C=C(C)C1CC=CCC1` (stereo unspecified) [r-limonene] reads 0.749 and 0.541 and 0.866.
The same measure, in the same setting: under `CC1COCc2cc3c(cc21)C(C)(C)C(C)C3(C)C` (stereo unspecified) [galaxolide] stands 3.67 and 4.17; under `CC(C)CC(=O)O` [isovaleric acid], 1.03.
The same measure, in the same setting: under `CC12C=CCC1C1CCC3=CC(=O)CCC3(C)C1CC2` (stereo unspecified) [androstadienone] stands 0.898 and 1.45; under `CC(C)(C)c1ccc(CCC=O)cc1` [bourgeonal], 1.14.
`O=C1CCCCCCCCCCCCCCO1` [pentadecalactone] showed an odorant receptor activation of 0.733.
Same read-out and setting: under `CC1=NC(C)SC1C` (stereo unspecified) stands 1.32 and 0.961.
Same read-out and setting: the result for `CCCCCC(=O)O` [caproic acid] reads 0.914; that for `CCCCCCCCCCC=O` [undecanal], 1.06.
Turning to `O=C1CCCCC1` [Cyclohexanone], the odorant receptor activation is 0.736 and 0.98.
`C=CCc1ccc(O)c(OC)c1` [eugenol]: the odorant receptor activation was 1.46 and 1.09 and 1.14.
On the same count and under the same terms, the result for `CCCCCCCC=CC=O` [2-decenal] reads 1.23; that for `CC(C)C=O` [isobutyraldehyde], 0.751 and 1.25.
In the case of `c1cnccn1` [pyrazine], the odorant receptor activation is 0.737.
On the same count and under the same terms, the result for `CC(=O)c1ccccc1` [acetophenone] reads 0.967 and 0.83; that for `CC(C)C(=O)O` [isobutyric acid], 0.673 and 0.909.

In another experiment the test system is OR2T5 clone 1496. The description is as above. The conditions noted are these: 100 µM.
As for `COC(=O)c1ccccc1` [methyl benzoate], the odorant receptor activation is 0.99 and 1.1.
The same measure, in the same setting: under `CCCCCCCOC(C)=O` [heptyl acetate] stands 1.17 and 0.974; under `COc1ccccc1O` [guaiacol], 1.3 and 0.938; under `CC(=O)OCC=C(C)CCC=C(C)C` [geranyl acetate], 1.5 and 1.06.
Still for that read-out and setting: the result for `CC(=O)OC1CC2CCC1(C)C2(C)C` (stereo unspecified) [isobornyl acetate] reads 1.57 and 0.872; that for `CCCCCC(C)=O` [2-heptanone], 1.24 and 0.722; that for `CCCCCOC(C)=O` [n-amyl acetate], 0.955 and 0.798.
On the same count and under the same terms, under `CC12C=CCC1C1CCC3CC(=O)CCC3(C)C1CC2` (stereo unspecified) [androstenone] stands 1.22; under `CCCCCCOC(=O)CCC` [hexyl butyrate], 1.42 and 0.813; under `CCC1(O)C2(C)CCC(C2)C1(C)C` (stereo unspecified) [2-ethylfenchol], 0.961.
As for `C=C(C)C1CC=CCC1` (stereo unspecified) [r-limonene], the odorant receptor activation is 1.2 and 1.09 and 0.957.
In the case of `CC(C)CC(=O)O` [isovaleric acid], the odorant receptor activation is 1.06.
On the same count and under the same terms, the result for `CC12C=CCC1C1CCC3=CC(=O)CCC3(C)C1CC2` (stereo unspecified) [androstadienone] reads 1.35 and 1.07.
In turn, `CC(C)(C)c1ccc(CCC=O)cc1` [bourgeonal] had an odorant receptor activation of 0.823.
Regarding `O=C1CCCCCCCCCCCCCCO1` [pentadecalactone], the odorant receptor activation was determined as 1.38.
Same read-out and setting: the result for `CC1=NC(C)SC1C` (stereo unspecified) reads 1.06 and 0.904.
The compound `CCCCCC(=O)O` [caproic acid] returned an odorant receptor activation of 0.975.
Same read-out and setting: under `CCCCCCCCCCC=O` [undecanal] stands 1.27; under `O=C1CCCCC1` [Cyclohexanone], 0.933 and 1.15; under `C=CCc1ccc(O)c(OC)c1` [eugenol], 1.26 and 1.13 and 1.42.
Same read-out and setting: under `CCCCCCCC=CC=O` [2-decenal] stands 1.25; under `CC(C)C=O` [isobutyraldehyde], 1.28 and 0.86.
Take `c1cnccn1` [pyrazine]: the odorant receptor activation was 1.19.
On the same count and under the same terms, under `CC(=O)c1ccccc1` [acetophenone] stands 1.16 and 0.845.
Still for that read-out and setting: under `CC(C)C(=O)O` [isobutyric acid] stands 1.35 and 0.893.
